Among the data in article PMC9831654 are binding values, retold here.

Amino acid sequences for entries named in this document (tags omitted).
UniProt P54652: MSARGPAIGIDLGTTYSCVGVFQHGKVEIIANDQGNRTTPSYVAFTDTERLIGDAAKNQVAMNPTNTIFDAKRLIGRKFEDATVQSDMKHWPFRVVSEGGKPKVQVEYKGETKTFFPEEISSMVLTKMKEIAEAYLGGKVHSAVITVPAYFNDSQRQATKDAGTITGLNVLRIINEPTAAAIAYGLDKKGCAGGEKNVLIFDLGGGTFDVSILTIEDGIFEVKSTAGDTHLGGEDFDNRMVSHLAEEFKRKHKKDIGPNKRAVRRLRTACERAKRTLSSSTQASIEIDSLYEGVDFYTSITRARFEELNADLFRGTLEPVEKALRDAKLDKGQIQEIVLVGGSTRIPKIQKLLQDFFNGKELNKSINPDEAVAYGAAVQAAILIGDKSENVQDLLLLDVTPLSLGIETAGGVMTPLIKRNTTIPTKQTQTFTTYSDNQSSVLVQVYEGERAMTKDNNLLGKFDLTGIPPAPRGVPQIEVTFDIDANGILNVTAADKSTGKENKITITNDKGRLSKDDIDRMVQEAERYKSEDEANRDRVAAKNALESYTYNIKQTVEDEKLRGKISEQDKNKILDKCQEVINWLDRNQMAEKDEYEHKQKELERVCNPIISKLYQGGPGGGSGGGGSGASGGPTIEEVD

These are yes or no findings as the source states them, for the method shown. In cells and extracts the contact can be indirect. Some results given as binding are weak or reduced against the parent protein; the word gives no strength.

In assay [1] the target is Flag-USP20 (ubiquitin-specific peptidase 20) (UniProt Q9Y2K6). The assay can be described thus: co-IP; Flag-USP20 and Myc-HSPA2 co-expressed in HEK-293T cells for 48 h; RIPA lysate, IP with the indicated antibodies and protein A/G magnetic beads at 4°C, immunoblotting. (In general: In western blotting, separated proteins are transferred to a membrane and probed.)
Assay [2] concerns the target USP20 (ubiquitin-specific peptidase 20), endogenous (human (endogenous in HEK-293T)) (UniProt Q9Y2K6). Nature of the assay: co-IP; endogenous proteins in HEK293T lysate; IP with the indicated antibodies and protein A/G magnetic beads at 4°C, immunoblotting.

“Myc-HSPA2 (heat-shock protein family A member 2) (from UniProt P54652 1-639)”: the binding result in assay [1] was “binds”.
Consider “HSPA2 (heat-shock protein family A member 2), endogenous (from UniProt P54652 1-639)”, for which the binding result in assay [2] is “binds”.
